Reference: PMC3814348 (PLoS Pathogens, 2013)
No constants are given. Whether binding was seen depends on the method and setting. For part of these data: Binding seen in cells or lysates may run through a third protein. Some binding calls cover weakened binding; strength is not graded here. For part of these data: Sequences can lack the tags named with a protein.

The chains behind the UniProt entries cited, without tags or fusion partners. Where a name states a change or a piece, a line headed by the entry shows the natural chain unless it says otherwise. Residues count along the entry.
UniProt A0QQ44: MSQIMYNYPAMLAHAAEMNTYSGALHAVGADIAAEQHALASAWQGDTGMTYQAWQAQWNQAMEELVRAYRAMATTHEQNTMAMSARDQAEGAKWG
UniProt O14964: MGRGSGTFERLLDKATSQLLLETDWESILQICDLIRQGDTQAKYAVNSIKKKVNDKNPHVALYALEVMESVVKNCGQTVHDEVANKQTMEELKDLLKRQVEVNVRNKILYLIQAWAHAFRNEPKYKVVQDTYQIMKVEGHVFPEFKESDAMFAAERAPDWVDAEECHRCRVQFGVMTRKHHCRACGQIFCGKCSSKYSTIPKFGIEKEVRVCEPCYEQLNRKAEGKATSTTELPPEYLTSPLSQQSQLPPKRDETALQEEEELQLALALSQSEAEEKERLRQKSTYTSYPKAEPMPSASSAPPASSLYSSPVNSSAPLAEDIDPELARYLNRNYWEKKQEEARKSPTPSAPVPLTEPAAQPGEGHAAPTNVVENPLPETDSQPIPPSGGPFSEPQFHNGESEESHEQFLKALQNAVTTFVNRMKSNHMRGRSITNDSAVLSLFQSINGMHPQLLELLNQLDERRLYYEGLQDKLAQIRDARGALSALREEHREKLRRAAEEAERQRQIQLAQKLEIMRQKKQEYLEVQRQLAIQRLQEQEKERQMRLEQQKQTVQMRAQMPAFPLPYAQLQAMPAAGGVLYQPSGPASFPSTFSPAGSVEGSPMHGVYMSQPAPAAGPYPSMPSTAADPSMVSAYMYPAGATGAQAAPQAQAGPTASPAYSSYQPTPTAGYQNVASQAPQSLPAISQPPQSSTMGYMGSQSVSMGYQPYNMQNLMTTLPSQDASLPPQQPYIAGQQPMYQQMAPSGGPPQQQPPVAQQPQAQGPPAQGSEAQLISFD
Hrs-398-777-V5 (not stated (human, mouse or zebrafish cDNA cloned)): residues 398-777 of O14964
UniProt P9WIA1: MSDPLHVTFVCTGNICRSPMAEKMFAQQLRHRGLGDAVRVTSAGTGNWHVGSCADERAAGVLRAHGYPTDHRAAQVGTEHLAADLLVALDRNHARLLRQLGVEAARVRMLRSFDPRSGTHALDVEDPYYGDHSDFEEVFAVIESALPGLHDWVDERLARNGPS
UniProt Q99LI8: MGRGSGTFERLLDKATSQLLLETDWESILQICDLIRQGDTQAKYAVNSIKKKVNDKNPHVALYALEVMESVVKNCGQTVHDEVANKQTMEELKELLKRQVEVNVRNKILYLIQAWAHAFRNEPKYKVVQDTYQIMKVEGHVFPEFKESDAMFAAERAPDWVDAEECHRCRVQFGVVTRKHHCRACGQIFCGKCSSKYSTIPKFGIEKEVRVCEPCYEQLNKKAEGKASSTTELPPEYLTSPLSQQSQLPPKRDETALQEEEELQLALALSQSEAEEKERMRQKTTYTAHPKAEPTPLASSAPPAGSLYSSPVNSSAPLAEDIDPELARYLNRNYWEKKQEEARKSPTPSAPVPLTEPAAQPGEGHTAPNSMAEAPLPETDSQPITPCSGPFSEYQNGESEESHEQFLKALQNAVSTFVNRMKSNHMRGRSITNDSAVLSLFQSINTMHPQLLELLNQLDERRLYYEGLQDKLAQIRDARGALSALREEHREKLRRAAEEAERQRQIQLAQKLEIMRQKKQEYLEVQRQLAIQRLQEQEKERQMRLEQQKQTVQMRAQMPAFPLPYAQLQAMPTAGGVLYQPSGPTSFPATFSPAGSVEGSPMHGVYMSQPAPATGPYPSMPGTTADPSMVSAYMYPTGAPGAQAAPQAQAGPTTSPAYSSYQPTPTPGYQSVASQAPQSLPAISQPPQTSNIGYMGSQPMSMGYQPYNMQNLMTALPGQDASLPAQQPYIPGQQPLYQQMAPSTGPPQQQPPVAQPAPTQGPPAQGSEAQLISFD

B1: EsxGMt Gal4 activation domain fusion (protein, UniProt O53692 1-97)
chain: MSLLDAHIPQLVASQSAFAAKAGLMRHTIGQAEQAAMSAQAFHQGESSAAFQAAHARFVAAAAKVNTLLDVAQANLGEAAGTYVAADAAAASTYTGF
B2: EsxHMt-FLAG (protein, UniProt P9WNK3 1-96)
chain: MSQIMYNYPAMLGHAGDMAGYAGTLQSLGAEIAVEQAALQSAWQGDTGITYQAWQAQWNQAMEDLVRAYHAMSSTHEANTMAMMARDTAEAAKWGG
B3: Ligand of Numb protein X (LNX1) (protein, UniProt Q8TBB1 1-728)
chain: MNQPESANDPEPLCAVCGQAHSLEENHFYSYPEEVDDDLICHICLQALLDPLDTPCGHTYCTLCLTNFLVEKDFCPMDRKPLVLQHCKKSSILVNKLLNKLLVTCPFREHCTQVLQRCDLEHHFQTSCKGASHYGLTKDRKRRSQDGCPDGCASLTATAPSPEVSAAATISLMTDEPGLDNPAYVSSAEDGQPAISPVDSGRSNRTRARPFERSTIRSRSFKKINRALSVLRRTKSGSAVANHADQGRENSENTTAPEVFPRLYHLIPDGEITSIKINRVDPSESLSIRLVGGSETPLVHIIIQHIYRDGVIARDGRLLPGDIILKVNGMDISNVPHNYAVRLLRQPCQVLWLTVMREQKFRSRNNGQAPDAYRPRDDSFHVILNKSSPEEQLGIKLVRKVDEPGVFIFNVLDGGVAYRHGQLEENDRVLAINGHDLRYGSPESAAHLIQASERRVHLVVSRQVRQRSPDIFQEAGWNSNGSWSPGPGERSNTPKPLHPTITCHEKVVNIQKDPGESLGMTVAGGASHREWDLPIYVISVEPGGVISRDGRIKTGDILLNVDGVELTEVSRSEAVALLKRTSSSIVLKALEVKEYEPQEDCSSPAALDSNHNMAPPSDWSPSWVMWLELPRCLYNCKDIVLRRNTAGSLGFCIVGGYEEYNGNKPFFIKSIVEGTPAYNDGRIRCGDILLAVNGRSTSGMIHACLARLLKELKGRITLTIVSWPGTFL

Assays:
[1] = target: T1, EsxHMt Gal4 DNA-binding domain fusion (Mycobacterium tuberculosis) (UniProt P9WNK3); assay: two-hybrid
T1 sequence: B2 chain

[2] = target: EsxHMs Gal4 DNA-binding domain fusion (Mycobacterium smegmatis) (UniProt A0QQ44); assay: two-hybrid
[3] = target: Hrs-398-777-V5 (not stated (human, mouse or zebrafish cDNA cloned)) (UniProt O14964); assay: co-IP
[4] = target: PtpA (Mycobacterium tuberculosis) (UniProt P9WIA1); assay: two-hybrid

Row | Molecule | binding [1] | also measured
1 | human hepatocyte growth factor-regulated tyrosine kinase substrate (Hgs/Hrs), Gal4 activation domain fusion (from UniProt O14964 1-777) | binds | 
2 | mouse Hrs, Gal4 activation domain fusion (from UniProt Q99LI8 1-775) | binds | 
3 | B1 | binds | binding [2]: binds
4 | B2 |  | binding [3]: binds
5 | B3 |  | binding [4]: binds
